This is an account of results in US20110052564A1.

By UniProt entry, the sequences of proteins in these tests, tags left out. Residues count along the entry.
UniProt P02751, 184-273: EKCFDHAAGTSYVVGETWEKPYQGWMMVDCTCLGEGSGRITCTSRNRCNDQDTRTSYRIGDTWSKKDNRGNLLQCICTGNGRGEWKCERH

The target of this experiment is crossbeta E2 (cE2), E2 affinity purified on the anti-E2 antibody V3 column (Classical Swine Fever Virus) (UniProt P21530). Description: ELISA, coated E2 form, Fn F4-5 concentration series, anti-FLAG detection. (In general: ELISA stands for enzyme-linked immunosorbent assay.)

No constants are given. Whether binding was seen depends on the method and setting. Some entries that bind do so weakly or less than the wild type.

As to “fourth and fifth finger domain of fibronectin (Fn F4-5) with C-terminal FLAG-tag (from UniProt P02751 184-273)”, the binding result is “binds”.
